{"source": "PubChem BioAssay AID1259308 | NCATS – 2017", "assay": "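Candidate targets for better recombinant protein yield in mammalian cells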 (primary screen)", "system": "human HEK293 embryonic kidney cells stably expressing firefly luciferase (HEK-CMV-Luc2-Hygro)", "reagents": "single siRNA against human genes, 0.8 pmol siRNA per well", "time to read-out": "72 h", "read-out": "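Luciferase light (ONE-Glo) measured on one replicate plate set and viability (CellTiter-Glo) on the other, scaled to a negative control siRNA, with robust z-scores and luciferase per cell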", "scale": "total luciferase, z-score: higher = more reporter protein produced", "call rule": "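Active when the median/MAD z-score for overall luciferase is greater than 3; a gene was taken forward for validation with new siRNAs if at least two of its three siRNAs passed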", "meaning of the calls": "active = raised luciferase; inactive = no rise", "note": "In all, the deposit lists about 59,000 reagents; below is a random part of them. In the full data, about 1,510 (2.6%) got an active call. 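Calls use total luciferase alone and ignore viability, so some active siRNAs may act by altering cell number.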 Entries without a mark were called inactive. Not all columns of the deposit are shown."}
The opening 2 records, to show the layout:
{"gene": "MORF4 (GeneID 10934)", "PubChem SID": "SID160729557", "total luciferase, z-score": -0.216}
{"gene": "MORF4 (GeneID 10934)", "PubChem SID": "SID160729558", "total luciferase, z-score": -1.08}

Results, from the first entry:
{"gene": "MORF4 (GeneID 10934)", "PubChem SID": "SID160729557", "total luciferase, z-score": -0.216}
{"gene": "MORF4 (GeneID 10934)", "PubChem SID": "SID160729558", "total luciferase, z-score": -1.08}
{"gene": "MORF4 (GeneID 10934)", "PubChem SID": "SID160729559", "total luciferase, z-score": 0.461}
{"gene": "SALL4 (GeneID 57167)", "PubChem SID": "SID160731588", "total luciferase, z-score": -2.48}
{"gene": "SALL4 (GeneID 57167)", "PubChem SID": "SID160745742", "total luciferase, z-score": -1.03}
{"gene": "SALL4 (GeneID 57167)", "PubChem SID": "SID160745743", "total luciferase, z-score": -0.222}
{"gene": "TTC39B (GeneID 158219)", "PubChem SID": "SID160759608", "total luciferase, z-score": -1.59}
{"gene": "TTC39B (GeneID 158219)", "PubChem SID": "SID160759609", "total luciferase, z-score": -1.35}
{"gene": "TTC39B (GeneID 158219)", "PubChem SID": "SID160759610", "total luciferase, z-score": 0.944}
{"gene": "HMGN2 (GeneID 3151)", "PubChem SID": "SID160723861", "total luciferase, z-score": 0.548}
{"gene": "HMGN2 (GeneID 3151)", "PubChem SID": "SID160723862", "total luciferase, z-score": 0.204}
{"gene": "HMGN2 (GeneID 3151)", "PubChem SID": "SID160775057", "total luciferase, z-score": 1.79}
